According to patent publication US9545410B2, “Tyrosine kinase inhibitors as anti-kinetoplastid agents” (UNIVERSITY OF GEORGIA RESEARCH FOUNDATION, INC., priority 2006, dated 2017):
At least one structure is not confirmed: it was looked up by name or label, or the drawing left a doubt.

Tested on: blood stream T. brucei strain 427
Test: Cultured bloodstream T. brucei growth/viability, parasites counted with a haemocytometer
Assay type: cell-based, Trypanosoma brucei
Conditions: blood stream form T. brucei 427, 37° C. for 40 hours
Protocol: Cultured trypanosomes (seeded at 10^4/ml) in 100 μl of a 96-well plate received varying amounts of Tyrphostin A47 (Sigma). Parasites were counted with a haemocytometer after 48 hours in culture. Data are means of triplicate determinations, they are representative of three independent trials. Blood stream form of T. brucei were used for these studies since that stage of the parasite causes disease in humans. Inhibitory concentration 50 (IC50) is the drug concentration which reduces the growth rate by 50%. Minimum inhibitory concentration (MIC) is the lowest concentration which killed all the parasites.
T. brucei strain 427 was cultured axenically and seeded at 10^4 cells/ml in 200 μl of medium a 96-well plate. Tyrphostin AG1478 (Sigma) (Zhu et al., 2001, Cancer Lett; 169:27-32; Shushan et al., 2004, Hum Reprod; 19:1957-1967) was added to the stated final concentrations, cells were incubated at 37° C. for 40 hours, and parasites were counted with a haemocytometer. […]
The 4-anilinoquinazoline canertinib (also referred to as C1-1033) is an inhibitor of EGFR kinase (Dewji, 2004, J Chemotherapy; 16(Suppl 4):44-48; Hamid, 2004, J Am Pharm Assoc; 44:52-58). […] Parasites were counted with a haemocytometer. […]
This example presents data showing sunitinib and axitinib (both provided by Pfizer) are trypanocidal. […] Parasites were counted with a haemocytometer. […]

CNC(=O)c1ccccc1Sc1ccc2c(/C=C/c3ccccn3)n[nH]c2c1 [axitinib, N-methyl-2-[[3-[1E-2-(pyridin-2-yl)ethenyl]-1H-inadazol-6-yl]sulfanyl]benzaminde]
trypanocidal effect on T. brucei (in words): kills T. brucei
